Source: the supplement of paper PMC6143611
Where “and” joins values, the source holds several entries; their conditions need not be identical. Equal values may be shown once. Where a name gives a salt, the structure may show the parent alone. ± gives the uncertainty stated by the source. The list shows a part of the results. Part of the spread comes from offsets between plates or batches.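 Larvae carried a heat-shock-induced fluorescent stripe in rod outer segments, set at 6 dpf; the shedding distance runs from this stripe to the outer segment tip, measured in confocal stacks, about three fish per compound. The controls got 0.2% DMSO vehicle, and the paper flagged compounds with at least a 20% change against the same-week control and p < 0.001 (Dunnett test on mixed-effects models).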

Experiments:
[1] = system: Danio rerio larva rod photoreceptor outer segment; experiment: rod outer segment growth distance Dg, difference from same-week DMSO control mean; higher = more outer segment growth; conditions: 20 µM; treatment time: 4 days (6-10 dpf)
[2] = system: Danio rerio larva rod photoreceptor outer segment; experiment: rod outer segment shedding distance Ds, difference from same-week DMSO control mean; higher = less outer segment shedding; conditions: 20 µM; treatment time: 4 days (6-10 dpf)

Row | SMILES | rod outer segment growth distance Dg [1] | rod outer segment shedding distance Ds [2]
1 | CC(C)OC(=O)OCOP(=O)(CO[C@H](C)Cn1cnc2c(N)ncnc21)OCOC(=O)OC(C)C [Tenofovir Disoproxil Fumarate] | 0.1 ± 0.19 um | -0.04 ± 0.3 um
2 | CCc1cccc(CC)c1NC(=O)N1Cc2[nH]nc(NC(=O)c3ccc(N4CCN(C)CC4)cc3)c2C1 | -0.27 ± 0.17 um | -0.74 ± 0.17 um
3 | CC1(C)O[C@H]2CC(=O)OC[C@]23[C@H]2CC[C@@]4(C)[C@H](c5ccoc5)OC(=O)[C@H]5O[C@]54[C@]2(C)C(=O)C[C@@H]13 [Limonin] | 0.93 ± 0.31 um | 0.9 ± 0.31 um
4 | COc1cc2c(Nc3ccc(NC(=O)c4ccccc4)cc3)ncnc2cc1OCCCN1CCOCC1 | -1.03 ± 0.2 um | -0.28 ± 0.21 um
5 | C[C@H](Cn1cnc2c(N)ncnc21)OCP(=O)(O)O [Tenofovir] | 1.21 ± 0.19 um | 0.48 ± 0.22 um
6 | CCC(=O)O[C@]1(C(=O)SCF)[C@H](C)C[C@H]2[C@@H]3C[C@H](F)C4=CC(=O)C=C[C@]4(C)[C@@]3(F)[C@@H](O)C[C@@]21C [Fluticasone propionate] | -1.46 ± 0.23 um | -0.17 ± 0.26 um
7 | COC(=O)Nc1nc2cc(C(=O)c3ccc(F)cc3)ccc2[nH]1 [Flubendazole] | -1.12 ± 0.18 um | -1.21 ± 0.25 um
8 | Nc1ccn([C@@H]2CS[C@H](CO)O2)c(=O)n1 [Lamivudine] | -0.26 ± 0.28 um | -0.27 ± 0.15 um
9 | CC(C)OC(=O)C1=CN(C(=O)c2ccc(F)c(F)c2)CC(C)(C)c2c1[nH]c1ccccc21 | -0.21 ± 0.15 um | -0.06 ± 0.12 um
10 | CC(C)CN(C[C@@H](O)[C@H](Cc1ccccc1)NC(=O)O[C@H]1CO[C@H]2OCC[C@H]21)S(=O)(=O)c1ccc(N)cc1 [Darunavir Ethanolate] | 0.16 ± 0.2 um | -0.34 ± 0.18 um
11 | NC(N)=Nc1nc(CSCC/C(N)=N/S(N)(=O)=O)cs1 [Famotidine] | 0.23 ± 0.39 um | -1.4 ± 0.43 um
12 | CC(C)(C#N)c1cc(Cn2cncn2)cc(C(C)(C)C#N)c1 [Anastrozole] | -0.17 ± 0.17 um | -1.63 ± 0.23 um
13 | CN(C)c1cc(NC(=O)CNC(C)(C)C)c(O)c2c1C[C@H]1C[C@H]3[C@H](N(C)C)C(=O)C(C(N)=O)=C(O)[C@@]3(O)C(=O)C1=C2O [Tigecycline] | 0.74 ± 0.24 um | -0.26 ± 0.29 um
14 | CS(=O)(=O)N1CCN(Cc2cc3nc(-c4cccc5[nH]ncc45)nc(N4CCOCC4)c3s2)CC1 | -0.93 ± 0.2 um | -0.26 ± 0.24 um
15 | Nc1cccc(-c2cc3c(Oc4cccc(O)c4)ncnc3[nH]2)c1 | 0.65 ± 0.18 um | -0.42 ± 0.16 um
16 | O=C(Nc1cccc(Cl)c1)Nc1ncc(CCNc2ncnc3ccsc23)s1 [SNS-314 Mesylate] | -2.02 ± 0.29 um | -0.27 ± 0.17 um
17 | COCC[n+]1c2c(n(Cc3cnccn3)c1C)C(=O)c1ccccc1C2=O [YM155 (Sepantronium Bromide)] | -1.08 ± 0.17 um | -0.68 ± 0.23 um

As entered above.
`CC(C)CN(C[C@@H](O)[C@H](Cc1ccccc1)NC(=O)O[C@H]1CO[C@H]2OCC[C@H]21)S(=O)(=O)c1ccc(N)cc1` [Darunavir Ethanolate] | rod outer segment growth distance Dg [1]: 0.16 ± 0.2 um
`CC(C)(C#N)c1cc(Cn2cncn2)cc(C(C)(C)C#N)c1` [Anastrozole] | rod outer segment shedding distance Ds [2]: -1.63 ± 0.23 um
`COCC[n+]1c2c(n(Cc3cnccn3)c1C)C(=O)c1ccccc1C2=O` [YM155 (Sepantronium Bromide)] | rod outer segment growth distance Dg [1]: -1.08 ± 0.17 um

More results follow.

Row | SMILES | rod outer segment growth distance Dg [1] | rod outer segment shedding distance Ds [2]
18 | COc1cc(CCc2cc(NC(=O)c3ccc(N4CC(C)NC(C)C4)cc3)n[nH]2)cc(OC)c1 (configuration not stated) | -1.2 ± 0.2 um | -0.56 ± 0.14 um
19 | COc1ccccc1OCC(O)COC(N)=O (configuration not stated) [Methocarbamol] | -0.18 ± 0.22 um | 0 ± 0.18 um
20 | CCC1=C(C)CN(C(=O)NCCc2ccc(S(=O)(=O)NC(=O)N[C@H]3CC[C@H](C)CC3)cc2)C1=O [Glimepiride] | 0.19 ± 0.29 um | 0.42 ± 0.17 um
21 | C[C@]12CC[C@@H]3c4ccc(O)cc4CC[C@H]3[C@@H]1CCC2=O [Estrone] | -1.05 ± 0.28 um | 0 ± 0.28 um
22 | O=C1CCC[C@@H]2[C@H]3CCC[N+]4([O-])CCC[C@@H](CN12)[C@@H]34 (some centres not stated) [Oxymatrine] | -1.99 ± 1.4 um | -4.27 ± 1.5 um
23 | O=C(Nc1cccc(Nc2ncc(Br)c(NCCc3cnc[nH]3)n2)c1)N1CCCC1 | 0.17 ± 0.22 um | -0.62 ± 0.2 um
24 | O=c1ccn([C@@H]2O[C@H](CO)[C@@H](O)[C@H]2O)c(=O)[nH]1 [Uridine] | 0.27 ± 0.25 um | -0.89 ± 0.27 um
25 | N#CC[C@H](C1CCCC1)n1cc(-c2ncnc3[nH]ccc23)cn1 | 0.39 um and 0.69 um | 
26 | CCOC(=O)Nc1ccc(NCc2ccc(F)cc2)nc1N [Flupirtine maleate] | -0.04 ± 0.31 um | 0.08 ± 0.21 um
27 | O=C(NCCO[N+](=O)[O-])c1cccnc1 [Nicorandil] | 1.19 ± 0.29 um | -0.54 ± 0.23 um
28 | O=C1N=C(O)NC1(c1ccccc1)c1ccccc1 [Phenytoin sodium] | 0.16 ± 0.2 um | 0.1 ± 0.33 um
29 | CC(=O)Nc1nc(C)c(-c2ccc(Cl)c(S(=O)(=O)NCCO)c2)s1 | -0.5 ± 0.17 um | -0.54 ± 0.19 um
30 | CN(N=O)C(=O)NC1C(O)OC(CO)C(O)C1O (configuration not stated) [Streptozotocin (STZ)] | 0.53 ± 0.15 um | -0.44 ± 0.14 um
31 | CCOCC(O)COc1ccc(NC(=O)CC[S+](C)C)cc1 (configuration not stated) [Suplatast Tosylate] | -1.04 ± 0.23 um | -0.79 ± 0.26 um
32 | Cc1cn([C@@H]2C[C@@H](O)[C@H](CO)O2)c(=O)[nH]c1=O [Telbivudine] | -1.18 ± 0.24 um | -0.37 ± 0.18 um
33 | CN(C)CCN1C(=O)c2cccc3cc(N)cc(c23)C1=O [Amonafide] | -0.23 ± 0.27 um | -0.12 ± 0.26 um
34 | CC(C)NCC(O)c1ccc(O)c(O)c1 (configuration not stated) [Isoprenaline HCl] | 0.23 ± 0.27 um | -0.6 ± 0.14 um
